Laboratory results published in patent publication US20110251090A1.
No constants are given. Whether binding was seen depends on the method and setting. In cells and extracts the contact can be indirect. Some results given as binding are weak or reduced against the parent protein; the word gives no strength. For part of these data: Where a sequence is shown, tags or fusion partners need not be part of it.

By UniProt entry, the sequences of proteins in these tests, tags left out.
UniProt Q9H4L4: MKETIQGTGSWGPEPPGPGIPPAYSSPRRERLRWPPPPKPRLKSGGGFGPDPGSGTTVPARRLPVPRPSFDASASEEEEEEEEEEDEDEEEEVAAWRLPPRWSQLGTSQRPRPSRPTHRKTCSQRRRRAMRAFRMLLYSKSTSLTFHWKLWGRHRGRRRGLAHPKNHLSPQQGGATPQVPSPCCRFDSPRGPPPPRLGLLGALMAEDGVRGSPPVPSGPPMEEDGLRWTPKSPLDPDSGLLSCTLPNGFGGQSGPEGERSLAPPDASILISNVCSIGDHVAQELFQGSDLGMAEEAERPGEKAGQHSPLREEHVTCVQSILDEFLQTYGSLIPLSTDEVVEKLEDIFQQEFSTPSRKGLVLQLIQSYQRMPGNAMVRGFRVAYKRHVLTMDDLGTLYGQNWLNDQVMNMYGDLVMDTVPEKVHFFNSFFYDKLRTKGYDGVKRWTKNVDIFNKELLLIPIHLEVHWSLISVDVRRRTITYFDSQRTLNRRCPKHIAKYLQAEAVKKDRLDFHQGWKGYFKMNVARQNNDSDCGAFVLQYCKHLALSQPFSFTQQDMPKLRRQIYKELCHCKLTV
UniProt Q8IZL8: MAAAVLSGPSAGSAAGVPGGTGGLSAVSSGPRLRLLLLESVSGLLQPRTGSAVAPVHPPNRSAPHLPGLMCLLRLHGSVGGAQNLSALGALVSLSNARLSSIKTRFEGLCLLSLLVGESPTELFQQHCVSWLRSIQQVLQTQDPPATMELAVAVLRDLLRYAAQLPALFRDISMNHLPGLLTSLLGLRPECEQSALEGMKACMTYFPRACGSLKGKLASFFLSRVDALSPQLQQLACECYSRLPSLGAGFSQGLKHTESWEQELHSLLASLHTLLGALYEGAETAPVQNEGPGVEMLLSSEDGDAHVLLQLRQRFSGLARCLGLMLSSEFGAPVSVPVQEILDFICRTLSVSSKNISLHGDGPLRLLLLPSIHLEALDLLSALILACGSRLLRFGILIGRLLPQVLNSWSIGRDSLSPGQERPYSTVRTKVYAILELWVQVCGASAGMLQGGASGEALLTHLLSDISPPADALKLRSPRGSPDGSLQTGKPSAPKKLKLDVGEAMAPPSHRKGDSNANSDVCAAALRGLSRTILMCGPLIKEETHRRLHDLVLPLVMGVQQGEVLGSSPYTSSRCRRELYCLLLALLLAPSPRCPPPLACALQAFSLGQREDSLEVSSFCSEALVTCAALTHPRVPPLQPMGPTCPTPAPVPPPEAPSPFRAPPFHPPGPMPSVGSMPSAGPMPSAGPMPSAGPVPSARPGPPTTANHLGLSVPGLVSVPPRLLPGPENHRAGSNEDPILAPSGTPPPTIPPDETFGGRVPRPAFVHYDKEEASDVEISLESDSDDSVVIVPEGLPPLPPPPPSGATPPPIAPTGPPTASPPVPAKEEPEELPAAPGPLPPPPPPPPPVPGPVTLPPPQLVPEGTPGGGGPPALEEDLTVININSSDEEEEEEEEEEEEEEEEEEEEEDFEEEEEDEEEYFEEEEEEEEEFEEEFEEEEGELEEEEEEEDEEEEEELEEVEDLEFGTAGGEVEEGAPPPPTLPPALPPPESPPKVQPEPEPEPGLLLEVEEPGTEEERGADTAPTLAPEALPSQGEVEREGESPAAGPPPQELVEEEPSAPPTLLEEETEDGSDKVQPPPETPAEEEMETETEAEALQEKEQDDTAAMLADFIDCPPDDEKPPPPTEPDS

Assays:
[1] = biological target: SENP3-Flag (human) (UniProt Q9H4L4); test: co-immunoprecipitation from co-transfected COS-7 cells (FIG. 8B)
[2] = biological target: SENP3-Flag (human) (UniProt Q9H4L4); test: co-immunoprecipitation with anti-HA antibody (PELP1-HA) from cells co-transfected with wild-type or enzyme-dead (E906A) TTLL4 (FIG. 9B upper)
[3] = biological target: T1, LAS1L-Flag (human) (UniProt Q9Y4W2); test: co-immunoprecipitation (FIG. 8)
T1 sequence: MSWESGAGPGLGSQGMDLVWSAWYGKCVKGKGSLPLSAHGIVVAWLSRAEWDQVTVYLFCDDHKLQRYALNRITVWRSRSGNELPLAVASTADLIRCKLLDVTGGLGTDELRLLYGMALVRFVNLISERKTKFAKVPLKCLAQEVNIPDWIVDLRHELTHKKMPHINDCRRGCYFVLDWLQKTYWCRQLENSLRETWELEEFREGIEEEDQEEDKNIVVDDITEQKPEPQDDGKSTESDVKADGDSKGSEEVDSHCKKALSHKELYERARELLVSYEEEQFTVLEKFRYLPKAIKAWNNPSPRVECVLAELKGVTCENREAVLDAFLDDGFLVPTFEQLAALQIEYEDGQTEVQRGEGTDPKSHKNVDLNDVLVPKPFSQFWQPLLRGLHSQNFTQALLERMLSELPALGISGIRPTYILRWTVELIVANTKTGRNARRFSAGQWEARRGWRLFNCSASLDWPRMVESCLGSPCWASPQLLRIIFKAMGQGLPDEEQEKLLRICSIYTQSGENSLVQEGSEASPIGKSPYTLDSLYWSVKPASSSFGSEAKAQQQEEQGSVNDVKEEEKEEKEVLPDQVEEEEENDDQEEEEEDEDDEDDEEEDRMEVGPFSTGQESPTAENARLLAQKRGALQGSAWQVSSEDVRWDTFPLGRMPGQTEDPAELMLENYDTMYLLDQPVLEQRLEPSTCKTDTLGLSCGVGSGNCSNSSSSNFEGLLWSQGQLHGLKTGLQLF

[4] = biological target: SENP3-Flag (human) (UniProt Q9H4L4); test: co-immunoprecipitation (FIG. 8)
[5] = biological target: T1, LAS1L-Flag (human); test: co-immunoprecipitation from co-transfected COS-7 cells, western blot with anti-HA antibody (FIG. 8A left)
[6] = biological target: SENP3-Flag (human) (UniProt Q9H4L4); test: co-immunoprecipitation from COS-7 cells co-transfected with PELP1-HA and SENP3-Flag vectors (FIG. 8B)
[7] = biological target: SENP3-Flag (human) (UniProt Q9H4L4); test: co-immunoprecipitation with TTLL4 over-expression (FIG. 9B upper)
[8] = biological target: T1, LAS1L-Flag (human); test: co-immunoprecipitation with TTLL4 over-expression (FIG. 9A upper)
[9] = biological target: T1, LAS1L-Flag (human); test: co-immunoprecipitation with anti-HA antibody (PELP1-HA) from cells co-transfected with wild-type or enzyme-dead (E906A) TTLL4 (FIG. 9A upper)

Measured: binding

PELP1-HA (from UniProt Q8IZL8 1-1130)
binds: all assays above
